# Assay results published in article PMC5996148.
# Values joined by “and” are separate entries in the source; they are usually repeats but may differ in a detail not shown here. Equal entries are not always repeated. The list shows a part of the results.
# Tests used:
# Experiment in all cases: protein microarray (ProtoArray v5.0), streptavidin-Alexa Fluor 647
# Details in all cases: 3'-biotin; 20 mM Tris (pH 7.5), 5 mM MgCl2, 100 mM KCl, 0.1% Tween-20, A/T-rich and random oligonucleotide blockers; temperature not stated; high values mean tight binding
# [1] = tested on: Alcohol dehydrogenase class 4 mu/sigma chain (human)
# [2] = tested on: Aldehyde dehydrogenase family 16 member A1 (human)
# [3] = tested on: Aldehyde dehydrogenase family 8 member A1 (human)
# [4] = tested on: Aldo-keto reductase family 1 member C2 (human)
# Alpha-catulin (human) = tested on: Alpha-catulin (human)
# [5] = tested on: Amino-terminal enhancer of split (human)
# [6] = tested on: Anaphase-promoting complex subunit 11 (human)
# [7] = tested on: Angiogenic factor with G patch and FHA domains 1 (human)
# [8] = tested on: Annexin-2 receptor (human)
# [9] = tested on: Apolipoprotein A-IV (human)
sequence,measurement,setting,value
GGGGACAGGGGTATGGGGAGGGG [G4-3 biotinylated (CtG)],binding signal,[1],-0.309 z-score
same,binding signal,[2],-0.322 z-score
same,binding signal,[3],-0.339 z-score
same,binding signal,[4],-0.318 z-score
same,binding signal,Alpha-catulin (human),-0.334 z-score
same,binding signal,[5],-0.334 z-score
same,binding signal,[6],-0.318 z-score
same,binding signal,[7],4 z-score
same,binding signal,[8],-0.296 z-score and -0.341 z-score
same,binding signal,[9],-0.33 z-score
